Results are given in words; binding and its absence hold for the method and conditions named. In cells and extracts the contact can be indirect. Some results given as binding are weak or reduced against the parent protein; the word gives no strength.

Sequences of proteins named here, by UniProt entry; tags and fusion partners are left off.
UniProt Q9Y6K9: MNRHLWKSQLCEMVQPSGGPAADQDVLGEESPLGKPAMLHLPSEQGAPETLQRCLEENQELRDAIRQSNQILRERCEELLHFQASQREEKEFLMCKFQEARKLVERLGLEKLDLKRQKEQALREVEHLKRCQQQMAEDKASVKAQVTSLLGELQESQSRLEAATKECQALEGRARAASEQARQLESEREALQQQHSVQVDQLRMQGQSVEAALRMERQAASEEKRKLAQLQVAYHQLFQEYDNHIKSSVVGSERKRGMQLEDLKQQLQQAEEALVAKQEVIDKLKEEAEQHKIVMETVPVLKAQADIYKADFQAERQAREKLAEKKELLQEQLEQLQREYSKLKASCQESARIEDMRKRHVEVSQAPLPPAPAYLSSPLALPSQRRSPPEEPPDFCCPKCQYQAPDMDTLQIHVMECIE

The target of the assay is Flag-tagged NEMO (pCMV-MCS-IKBKG-3FLAG) (UniProt Q9Y6K9). Nature of the assay: co-IP; GES-1 cells transfected with pCMV-MCS-IKBKG-3FLAG for 48 h; lysed in immunoprecipitation RIPA buffer; 2 mg whole cell lysate with 8 µg anti-flag or mouse IgG isotype control antibody, 16 h at 4 °C; Protein G Sepharose beads; washed 5 times; blotted with anti-NEMO and anti-CMTM3.

B1: CKLF-like MARVEL transmembrane domain containing 3 (CMTM3) (protein, UniProt Q96MX0 1-182)
chain: MWPPDPDPDPDPEPAGGSRPGPAVPGLRALLPARAFLCSLKGRLLLAESGLSFITFICYVASSASAFLTAPLLEFLLALYFLFADAMQLNDKWQGLCWPMMDFLRCVTAALIYFAISITAIAKYSDGASKAAGVFGFFATIVFATDFYLIFNDVAKFLKQGDSADETTAHKTEEENSDSDSD
In the case of B1, the binding result is “binds”.

The values are drawn from article PMC9924195.
